PubChem BioAssay AID1259254 | NCATS, 2017
Screen: 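Gene knock-downs that lead to re-replication, shown by excess G2 DNA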 (primary screen). System: human HCT116 colorectal cancer cells. Reagent: single siRNA against human genes. Timing: 3 days. Measured: 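Imaged Hoechst DNA stain sorts each cell into a cycle phase by DNA amount; per plate, G2 fraction set to 0% for non-targeting and 100% for GMNN siRNA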. Scale: G2 robust z-score and G2 cells, % of GMNN control: higher = more G2 cells, more excess DNA replication; raw share of cells in G2: higher = larger share of cells with G2 DNA content. Call rule: 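An siRNA counts as active if its G2 robust z-score lies at least 5 MADs above the screen median; here such calls match roughly 38% of GMNN control or more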.
This is an unselected part of about 59,000 reagents tested. Of all reagents, about 1,550 (2.6%) were called active. 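G2 share is only a proxy for re-replication; each gene was hit by three separate siRNAs, and active genes were retested.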 The raw values are shown without normalisation. The record does not give: the amount of reagent.

| target | PubChem SID | G2 robust z-score | G2 cells, % of GMNN control | raw share of cells in G2 (%) | Outcome |
| --- | --- | --- | --- | --- | --- |
| SBSPON | SID160759569 | -0.423 | -0.0109 | 3.6 | inactive |
| SBSPON | SID160759570 | -0.253 | 1.19 | 3.36 | inactive |
| SBSPON | SID160759571 | 1.8 | 15.7 | 7.72 | inactive |
| LTBP3 | SID160776769 | -0.486 | -0.449 | 5.29 | inactive |
| LTBP3 | SID160776770 | -1.28 | -6.01 | 1.21 | inactive |
| LTBP3 | SID160776771 | -0.864 | -3.11 | 4.16 | inactive |
| CHCHD6 | SID160752107 | 0.3 | 5.08 | 5.8 | inactive |
| CHCHD6 | SID160752108 | 1.11 | 10.8 | 6.66 | inactive |
| CHCHD6 | SID160752109 | -0.124 | 2.1 | 3.04 | inactive |
| MRPL1 | SID160748205 | 0.144 | 3.98 | 6.31 | inactive |
| MRPL1 | SID160748206 | -0.385 | 0.259 | 4.73 | inactive |
| MRPL1 | SID160748207 | 0.213 | 4.47 | 3.88 | inactive |
| BPY2 | SID160721433 | -0.17 | 1.77 | 5.92 | inactive |
| BPY2 | SID160721434 | -0.599 | -1.25 | 3.4 | inactive |
| BPY2 | SID160721435 | 0.977 | 9.84 | 6.83 | inactive |
| TMEM131L | SID160735804 | -0.647 | -1.58 | 4.36 | inactive |
| TMEM131L | SID160735805 | -0.187 | 1.66 | 4.82 | inactive |
| TMEM131L | SID160735806 | 0.46 | 6.21 | 5.5 | inactive |
| OR10G8 | SID160761376 | 2.05 | 17.4 | 9.88 | inactive |
| OR10G8 | SID160761377 | -0.803 | -2.68 | 2.21 | inactive |
| OR10G8 | SID160761378 | 0.916 | 9.41 | 6.2 | inactive |
| CYP3A7 | SID160751338 | -1 | -4.08 | 3.51 | inactive |
| CYP3A7 | SID160751349 | 0.76 | 8.32 | 6.96 | inactive |
| CYP3A7 | SID160751359 | -0.916 | -3.48 | 3.72 | inactive |
| PDS5A | SID160735817 | 0.961 | 9.73 | 10.3 | inactive |
| PDS5A | SID160735818 | 1.78 | 15.5 | 9.34 | inactive |
| PDS5A | SID160735820 | 5.25 | 39.9 | 17.5 | active |
| ZNF285CP | SID160768120 | 0.237 | 4.64 | 5.41 | inactive |
| ZNF285CP | SID160768121 | -0.552 | -0.917 | 3.07 | inactive |
| ZNF285CP | SID160768123 | -0.688 | -1.88 | 2.48 | inactive |
| ZNF285CP | SID160770059 | 4.09 | 31.7 | 15.7 | inactive |
| ZNF285CP | SID160770060 | -0.0349 | 2.72 | 4.23 | inactive |
| ZNF285CP | SID160770061 | -0.473 | -0.364 | 2.93 | inactive |
| CASKIN2 | SID160746152 | -0.681 | -1.83 | 3.63 | inactive |
| CASKIN2 | SID160746155 | 0.558 | 6.89 | 7.75 | inactive |
| CASKIN2 | SID160746156 | -0.385 | 0.26 | 3.11 | inactive |
| F8 | SID160763074 | 2.4 | 19.9 | 12.5 | inactive |
| F8 | SID160763081 | -0.257 | 1.16 | 5.32 | inactive |
| F8 | SID160763091 | -0.0529 | 2.6 | 4.88 | inactive |
| DCAF4L1 | SID160763609 | 3.39 | 26.8 | 13.4 | inactive |
| DCAF4L1 | SID160763610 | 1.15 | 11 | 7.32 | inactive |
| DCAF4L1 | SID160763611 | 0.815 | 8.7 | 5.91 | inactive |
| SCAMP4 | SID160754800 | -0.707 | -2.01 | 3.29 | inactive |
| SCAMP4 | SID160754801 | 0.319 | 5.21 | 4.88 | inactive |
| SCAMP4 | SID160754802 | -1.09 | -4.68 | 0.451 | inactive |
| PTS | SID160715437 | 8.16 | 60.4 | 25.7 | active |
| PTS | SID160715438 | -1.06 | -4.48 | 2.97 | inactive |
| PTS | SID160731622 | -0.00492 | 2.93 | 5.12 | inactive |
| LINC02167 | SID160725329 | -0.803 | -2.68 | 2.45 | inactive |
| LINC02167 | SID160725330 | 2.8 | 22.7 | 14.2 | inactive |
| LINC02167 | SID160766981 | 0.878 | 9.14 | 7.14 | inactive |
| SP140L | SID160754476 | 0.952 | 9.66 | 7.97 | inactive |
| SP140L | SID160754477 | -0.768 | -2.44 | 2.6 | inactive |
| SP140L | SID160754478 | -0.691 | -1.89 | 1.26 | inactive |
| TSHB | SID160718390 | 4.81 | 36.8 | 21.2 | inactive |
| TSHB | SID160718391 | 2.11 | 17.8 | 10.9 | inactive |
| TSHB | SID160731857 | -0.107 | 2.22 | 5.21 | inactive |
| TMSB10 | SID160721635 | -0.319 | 0.721 | 5.45 | inactive |
| TMSB10 | SID160724221 | -0.749 | -2.3 | 2.98 | inactive |
| TMSB10 | SID160735191 | 0.46 | 6.2 | 5.54 | inactive |
| GRXCR1 | SID160733234 | -0.821 | -2.81 | 3.43 | inactive |
| GRXCR1 | SID160766134 | 0.267 | 4.84 | 5.43 | inactive |
| GRXCR1 | SID160766135 | 3.27 | 25.9 | 14.7 | inactive |
| MBIP | SID160741010 | -0.0264 | 2.78 | 4.6 | inactive |
| MBIP | SID160741011 | 1.63 | 14.5 | 10.4 | inactive |
| MBIP | SID160741012 | -0.473 | -0.361 | 3.07 | inactive |
| APOL6 | SID160750603 | -0.883 | -3.24 | 3.02 | inactive |
| APOL6 | SID160750604 | -0.135 | 2.02 | 6.27 | inactive |
| APOL6 | SID160750605 | -0.0853 | 2.37 | 5.66 | inactive |

An excerpt from above, reduced to “G2 robust z-score”:
ZNF285CP [SID160770059]: 4.09
ZNF285CP [SID160770060]: -0.0349
ZNF285CP [SID160770061]: -0.473
CASKIN2 [SID160746152]: -0.681
CASKIN2 [SID160746155]: 0.558
CASKIN2 [SID160746156]: -0.385
F8 [SID160763074]: 2.4
F8 [SID160763081]: -0.257
F8 [SID160763091]: -0.0529
DCAF4L1 [SID160763609]: 3.39
